Experimental data reported in patent USRE49280.
These are yes or no findings as the source states them, for the method shown. Some binding calls cover weakened binding; strength is not graded here. Where a sequence is shown, tags or fusion partners need not be part of it.

Sequences of proteins named here, by UniProt entry; tags and fusion partners are left off. Residues count along the entry.
UniProt P01137, residues 279-390: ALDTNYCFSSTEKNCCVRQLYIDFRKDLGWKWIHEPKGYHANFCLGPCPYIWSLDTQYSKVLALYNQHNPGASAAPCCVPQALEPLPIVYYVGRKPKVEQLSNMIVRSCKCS

Columns and labels:
TGF-β1 [1] = biological target: TGF-β1 (UniProt P01137); experiment: SPR
TGF-β3 [2] = biological target: T1, TGF-β3 (UniProt P10600); experiment: SPR
T1 sequence (looked up): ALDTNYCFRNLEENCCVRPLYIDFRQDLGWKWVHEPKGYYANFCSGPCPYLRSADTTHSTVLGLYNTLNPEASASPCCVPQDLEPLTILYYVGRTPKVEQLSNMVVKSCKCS

TGF-β1 [3] = biological target: TGF-β1 (UniProt P01137); experiment: SPR, fusion injected over immobilised TGF-β1
TGF-β3 [4] = biological target: T1, TGF-β3; experiment: SPR, fusion injected over immobilised TGF-β3
TGF-β3 [5] = biological target: T1, TGF-β3; experiment: SPR competition, 0.8 nM TGF-β3 with increasing receptor fusion over immobilised 1D11 (competitor)

binding (TGF-β1 [1]): binds
binding (TGF-β3 [2]): binds
binding (TGF-β1 [3]): binds
binding (TGF-β3 [4]): binds
binding (TGF-β3 [5]): binds
B1: RER (TβRII-TβRIIIE-TβRII) heterotrimeric fusion (designed binder)
chain: AAANGAVKFPQLCKFCDVRFSTCDNQKSCMSNCSITSICEKPQEVCVAVWRKNDENITLETVCHDPKLPYHDFILEDAASPKCIMKEKKKPGETFFMCSCSSDECNDNIIFSEEYNTSNPDGLGPVESSPGHGLDTAAAGPEPSTRCELSPINASHPVQALMESFTVLSGCASHGTTGLPREVHVLNLRSTDQGPGQRQREVTLHLNPIASVHTHHKPIVFLLNSPQPLVWRLKTERLAAGVPRLFLVSEGSVVQFPSGNFSLTAETEERNFPQENEHLLRWAQKEYGAVTSFTELKIARNIYIKVGEDQVFPPTCNIGKNFLSLNYLAEYLQPKAAEGCVLPSQPHEKEVHIIELITPSSNPYSAFQVDIIVDIRPAQEDPEVVKNLVLILKSKKSVNWVIKSFDVKGNLKVIAPNSIGFGKESERSMTMTKLVRDDIPSTQENLMKWALDAGYRPVTSYTMAPVANRFHLRLENNEEMRDEEVHTIPPELRILLDPDKLPQLCKFCDVRFSTCDNQKSCMSNCSITSICEKPQEVCVAVWRKNDENITLETVCHDPKLPYHDFILEDAASPKCIMKEKKKPGETFFMCSCSSDECNDNIIFSEEYNTSNPD
